Measured values from paper PMC9971600.
No constants are given. Whether binding was seen depends on the method and setting. In cells and extracts the contact can be indirect. Some results given as binding are weak or reduced against the parent protein; the word gives no strength. Sequences can lack the tags named with a protein.

Amino acid sequences for entries named in this document (tags omitted).
UniProt O94901: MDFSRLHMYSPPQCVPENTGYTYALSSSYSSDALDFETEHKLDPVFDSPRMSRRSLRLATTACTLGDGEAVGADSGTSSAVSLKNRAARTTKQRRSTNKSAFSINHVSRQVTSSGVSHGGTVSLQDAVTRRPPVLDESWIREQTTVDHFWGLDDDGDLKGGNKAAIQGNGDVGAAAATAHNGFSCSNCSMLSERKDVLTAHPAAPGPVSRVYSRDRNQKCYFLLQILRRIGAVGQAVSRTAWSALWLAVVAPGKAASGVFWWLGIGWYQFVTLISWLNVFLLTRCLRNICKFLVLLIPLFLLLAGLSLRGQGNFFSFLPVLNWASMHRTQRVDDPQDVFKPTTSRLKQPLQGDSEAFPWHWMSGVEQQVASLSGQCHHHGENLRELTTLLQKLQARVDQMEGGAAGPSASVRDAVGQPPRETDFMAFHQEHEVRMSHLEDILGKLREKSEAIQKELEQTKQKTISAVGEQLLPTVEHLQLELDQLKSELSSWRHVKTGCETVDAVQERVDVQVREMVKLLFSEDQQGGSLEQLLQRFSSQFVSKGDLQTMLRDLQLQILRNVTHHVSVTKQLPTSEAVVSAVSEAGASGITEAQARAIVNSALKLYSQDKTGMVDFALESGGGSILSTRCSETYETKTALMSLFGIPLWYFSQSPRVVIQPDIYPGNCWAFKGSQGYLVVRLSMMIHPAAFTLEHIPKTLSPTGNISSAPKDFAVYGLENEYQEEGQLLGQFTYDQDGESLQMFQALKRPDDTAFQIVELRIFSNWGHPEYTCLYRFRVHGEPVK

Target: T1, FLAG-tagged wild-type KASH5 (human) (UniProt Q8N6L0)
T1 sequence: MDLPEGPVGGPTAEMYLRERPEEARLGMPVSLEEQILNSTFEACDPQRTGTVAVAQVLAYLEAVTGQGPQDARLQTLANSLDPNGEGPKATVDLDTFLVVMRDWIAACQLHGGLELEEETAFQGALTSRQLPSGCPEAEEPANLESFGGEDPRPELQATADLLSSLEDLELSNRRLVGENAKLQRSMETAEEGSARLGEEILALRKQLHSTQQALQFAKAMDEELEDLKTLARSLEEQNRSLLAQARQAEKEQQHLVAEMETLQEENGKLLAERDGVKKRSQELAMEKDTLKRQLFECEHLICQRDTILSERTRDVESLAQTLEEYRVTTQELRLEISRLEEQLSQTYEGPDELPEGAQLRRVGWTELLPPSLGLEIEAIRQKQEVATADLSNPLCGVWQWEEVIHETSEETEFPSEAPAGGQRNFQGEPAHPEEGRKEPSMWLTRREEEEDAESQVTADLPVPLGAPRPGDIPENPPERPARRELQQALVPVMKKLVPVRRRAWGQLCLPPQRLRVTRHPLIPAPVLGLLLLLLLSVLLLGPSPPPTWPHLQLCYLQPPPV
Experiment: co-IP; HEK293T cells co-transfected with GFP-SUN1 and FLAG-KASH5-WT or -MUT, 48 h; lysate in 50 mM Tris-HCl pH 7.5, 150 mM NaCl, 0.5% Triton X-100, 2.5 mM EDTA, 1 mM PMSF; anti-DYKDDDDK resin, 4°C, 8 h; six washes; blots with anti-GFP and anti-FLAG

GFP-tagged wild-type SUN1 (from UniProt O94901 1-785)
binding: binds
